PMC9498520

Chains of the proteins cited; added tags and fusions are not shown.
UniProt P52480: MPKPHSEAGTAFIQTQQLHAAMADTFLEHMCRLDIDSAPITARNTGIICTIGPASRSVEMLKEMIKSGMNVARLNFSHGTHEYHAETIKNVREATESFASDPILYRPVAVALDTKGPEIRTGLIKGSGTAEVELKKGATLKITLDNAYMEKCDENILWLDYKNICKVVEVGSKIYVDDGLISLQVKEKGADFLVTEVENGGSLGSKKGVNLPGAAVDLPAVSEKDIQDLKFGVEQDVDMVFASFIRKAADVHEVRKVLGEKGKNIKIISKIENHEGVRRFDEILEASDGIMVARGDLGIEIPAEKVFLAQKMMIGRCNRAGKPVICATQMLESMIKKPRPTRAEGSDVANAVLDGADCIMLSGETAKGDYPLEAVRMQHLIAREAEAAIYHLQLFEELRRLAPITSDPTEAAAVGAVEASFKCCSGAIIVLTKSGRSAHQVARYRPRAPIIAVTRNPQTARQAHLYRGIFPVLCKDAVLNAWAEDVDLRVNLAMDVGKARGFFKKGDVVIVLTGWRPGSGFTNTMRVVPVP

B1: Phosphoglycerate mutase (PGAM1) (enzyme, UniProt Q9DBJ1 1-254)
chain: MAAYKLVLIRHGESAWNLENRFSGWYDADLSPAGHEEAKRGGQALRDAGYEFDICFTSVQKRAIRTLWTVLDAIDQMWLPVVRTWRLNERHYGGLTGLNKAETAAKHGEAQVKIWRRSYDVPPPPMEPDHPFYSNISKDRRYADLTEDQLPSCESLKDTIARALPFWNEEIVPQIKEGKRVLIAAHGNSLRGIVKHLEGLSEEAIMELNLPTGIPIVYELDKNLKPIKPMQFLGDEETVRKAMEAVAAQGKVKK
B2: Phosphoglycerate kinase (PGK1), P09411 1-417 (enzyme)
chain: MSLSNKLTLDKLDVKGKRVVMRVDFNVPMKNNQITNNQRIKAAVPSIKFCLDNGAKSVVLMSHLGRPDGVPMPDKYSLEPVAAELKSLLGKDVLFLKDCVGPEVENACANPAAGTVILLENLRFHVEEEGKGKDASGNKVKAEPAKIDAFRASLSKLGDVYVNDAFGTAHRAHSSMVGVNLPQKAGGFLMKKELNYFAKALESPERPFLAILGGAKVADKIQLINNMLDKVNEMIIGGGMAFTFLKVLNNMEIGTSLYDEEGAKIVKDLMSKAEKNGVKITLPVDFVTADKFDENAKTGQATVASGIPAGWMGLDCGTESSKKYAEAVGRAKQIVWNGPVGVFEWEAFARGTKSLMDEVVKATSRGCITIIGGGDTATCCAKWNTEDKVSHVSTGGGASLELLEGKVLPGVDALSNV

What was measured:
[1] = molecular target: Enolase-1 (ENO1) (mouse (endogenous in NMuMG)) (UniProt P17182); assay: affinity purification with mass spectrometry; co-immunoprecipitation with an antibody against ENO-1 from UV-crosslinked extracts of control and Lnc-Nr6a1-depleted NMuMG cells; precipitated proteins analysed by quantitative mass spectrometry (spectral counting); markedly lower amounts in Lnc-Nr6a1-depleted cells
[2] = molecular target: T1, Enolase-1 (ENO1) (mouse (endogenous in NMuMG)), P17182; assay: as above; details: remark: other sources report otherwise
T1 chain: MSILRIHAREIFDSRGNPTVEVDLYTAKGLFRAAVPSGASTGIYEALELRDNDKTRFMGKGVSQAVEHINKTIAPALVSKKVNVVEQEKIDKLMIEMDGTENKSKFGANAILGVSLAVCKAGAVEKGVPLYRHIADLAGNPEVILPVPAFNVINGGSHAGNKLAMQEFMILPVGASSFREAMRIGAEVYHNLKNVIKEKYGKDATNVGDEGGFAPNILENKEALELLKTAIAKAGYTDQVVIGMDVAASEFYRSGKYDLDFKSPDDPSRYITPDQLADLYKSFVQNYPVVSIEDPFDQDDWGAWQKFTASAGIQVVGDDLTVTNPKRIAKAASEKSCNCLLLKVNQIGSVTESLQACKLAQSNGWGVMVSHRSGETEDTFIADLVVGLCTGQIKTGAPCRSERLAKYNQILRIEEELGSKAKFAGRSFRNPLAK

Molecule | binding [1] | binding [2]
Pyruvate kinase (PKM) (from UniProt P52480 1-531) (enzyme) | binds | –
B1 | binds | –
B2 | – | binds

No constants are given. Whether binding was seen depends on the method and setting. Binding seen in cells or lysates may run through a third protein. Here binding means that the protein was enriched with, or labelled near, the bait; the list need not be complete.
